Among the data in PMC12661400, “Oral bioavailable ITRI-148 degrades androgen receptor variants and overcomes antiandrogen resistance in advanced prostate cancer” (Neoplasia (New York, N.Y.), 2025) are IC50 values, retold here.

For the test, the system named is LNCaP. Kind of test: MTT cell viability, 7 days. It is filed as cell-based. To be noted: Homo sapiens, 168 h. On the procedure: Cells were seeded in 96-well plates and treated with drugs the next day. After 7 days, viability was assessed using MTT assay.
(C) Western blot analysis of AR and AR-V7 in C4-2B and C4-2B/MDVR cells after 48-hour ITRI-148 treatment. […] DEGs were determined relative to DMSO or pLKO.1 vector control. […] RPL13A was used for normalization. […] AR, AR-V7, and PSA expression in the drug-treated cells were detected across treatment timepoints.

As for `CNC(=O)c1ccc(N2C(=S)N(c3ccc(C#N)c(C(F)(F)F)c3)C(=O)C2(C)C)cc1F` [Enza, enzalutamide], the IC50 – broadly, the concentration that inhibits the measured activity by half – came to 410 nM.
